Experimental data from PubChem BioAssay AID590 (National Center for Advancing Translational Sciences (NCATS), 2007).
Screen size: about 59,000 compounds; about 6,500 (11%) were called active. This list was built around the results that the source calls inconclusive (neither active nor inactive); the mix of calls is not that of the screen. Cut-off read from the data, not from the text of the source: active = max dye-equivalent concentration above about 10 nM; inconclusive = mostly about 1.1 nM to 9.6 nM; inactive = weaker than that.

Assay: qHTS Assay for Spectroscopic Profiling in A350 Spectral Region
Conditions: Compound autofluorescence, 340/450 nm, Alexa 350 dye-equivalents; hits give high values

Row | SMILES | max dye-equivalent concentration
1 | CCCC(c1nnnn1CC(=O)OCC)N(Cc1cc2ccc(C)cc2[nH]c1=O)C1CCCC1 (configuration not stated) | active: 10 nM
2 | Cc1[nH]c2ccccc2c1C1=CN2CCS(=O)(=O)N=C2S1 | inconclusive: 1.5 nM
3 | Cc1ccc(/C=c2\sc3n(c2=O)CN(c2ccc(Br)cc2)CN=3)o1 | inconclusive: 7.8 nM
4 | COC(=O)Cn1nc(-c2ccccc2)c2ccccc2c1=O | inconclusive: 4.7 nM
5 | COc1ccccc1N1CCN(C(=O)c2cc(-c3ccc(Cl)c(Cl)c3)on2)CC1 | inactive
6 | Cc1cccc2cc(C(c3nnnn3CC3CCCO3)N3CCc4ccccc4C3)c(=O)[nH]c12 (configuration not stated) | inconclusive: 5.6 nM
7 | COc1cccc(C2C=C(c3ccc(Br)s3)Nc3ncnn32)c1OC (configuration not stated) | inconclusive: 4.6 nM
8 | Cc1[nH]c2ccc(Br)cc2c(=O)c1CN1CCOCC1 | inconclusive: 3.8 nM
9 | COCCCN(Cc1ccccn1)S(=O)(=O)Cc1ccccc1 | inconclusive: 3.8 nM
10 | Cc1occc1-c1nnc(SCC(=O)N2c3ccccc3CCc3ccccc32)n1C | inconclusive: 1.1 nM
11 | Fc1ccc(Cn2nnnc2CN2CCN(C3CCCCC3)CC2)cc1 | inconclusive: 1.6 nM
12 | COc1cccc(-c2ccc3ncnc(N(C)C)c3c2)c1 | inactive
13 | CCCc1nnc(NC(=O)Nc2ccccc2OC)s1 | inactive
14 | O=C(CSc1nnc(-c2ccccc2O)o1)Oc1ccc(OCc2ccccc2)cc1 | inconclusive: 8.1 nM
15 | CCOC(=O)c1ccc2nc(NC(=O)c3cccs3)sc2c1 | active: 13 nM
16 | COc1ccc(CCNc2cc(=O)[nH]c(N)n2)cc1 | inconclusive: 2.6 nM
17 | O=c1[nH]c(NCc2ccccc2)nc2c1CCCC2 | inconclusive: 3.6 nM
18 | CCn1c(SCC(=O)N2CCN(S(=O)(=O)c3ccccc3)CC2)nnc1-c1cccs1 | inconclusive: 4.9 nM
19 | CCCCc1nc(N2CCOCC2)c(C#N)c2c1COC(C)(C)C2 | active: 93 nM
20 | CS(=O)(=O)N1CCCC(C(=O)N2CCOCC2)C1 (configuration not stated) | inconclusive: 1.6 nM
21 | COc1cccc2cc(C(=O)NC3CC(C)(C)NC(C)(C)C3)c(=O)oc12 | inconclusive: 2.1 nM
22 | CCN1CCN(c2ncnc3c2oc2nc(C)c4c(c23)CC(C)(C)OC4)CC1 | inactive
23 | CCOc1ccc(-c2nc(C#N)c(N3CCN(CC)CC3)o2)cc1 | inconclusive: 1.2 nM
24 | CCOC(=O)C1CCCN(CC(=O)Nc2c(F)c(F)c(F)c(F)c2F)C1 (configuration not stated) | inconclusive: 1.2 nM

9 consecutive entries from above, for reference:
Row | SMILES | max dye-equivalent concentration
11 | Fc1ccc(Cn2nnnc2CN2CCN(C3CCCCC3)CC2)cc1 | inconclusive: 1.6 nM
12 | COc1cccc(-c2ccc3ncnc(N(C)C)c3c2)c1 | inactive
13 | CCCc1nnc(NC(=O)Nc2ccccc2OC)s1 | inactive
14 | O=C(CSc1nnc(-c2ccccc2O)o1)Oc1ccc(OCc2ccccc2)cc1 | inconclusive: 8.1 nM
15 | CCOC(=O)c1ccc2nc(NC(=O)c3cccs3)sc2c1 | active: 13 nM
16 | COc1ccc(CCNc2cc(=O)[nH]c(N)n2)cc1 | inconclusive: 2.6 nM
17 | O=c1[nH]c(NCc2ccccc2)nc2c1CCCC2 | inconclusive: 3.6 nM
18 | CCn1c(SCC(=O)N2CCN(S(=O)(=O)c3ccccc3)CC2)nnc1-c1cccs1 | inconclusive: 4.9 nM
19 | CCCCc1nc(N2CCOCC2)c(C#N)c2c1COC(C)(C)C2 | active: 93 nM

(cont.)

Row | SMILES | max dye-equivalent concentration
25 | Cc1ccc(-c2nnc(Nc3ccccc3)o2)cc1 | inactive
26 | O=C(CSc1nc2ccccc2[nH]1)NCCCn1ccnc1 | inconclusive: 1.4 nM
27 | CCc1ccc2[nH]c(=O)c(C(c3nnnn3Cc3ccccc3)N3CCOCC3)cc2c1 (configuration not stated) | active: 37 nM
28 | CCC(C)NCC(=O)Nc1ccc(-c2nc3cc(NC(=O)CNC(C)CC)ccc3o2)cc1 (configuration not stated) | active: 81 nM
29 | COc1ccc(N/C=C(\C#N)c2nc3ccccc3n2C)c(OC)c1 | active: 20 nM
30 | COc1cc(C2NC(=O)c3ccccc3O2)cc(OC)c1OC (configuration not stated) | inconclusive: 4.9 nM
31 | COc1cccc(Cn2c(=O)cnc3cnc(N4CCOCC4)nc32)c1 | inconclusive: 4 nM
32 | O=C(c1cccc(F)c1)N1CCC2(CC1)CCN(c1ccccn1)CC2 | inactive
33 | COC(=O)c1[nH]c2ccccc2c1NC(=O)CCN1CCN(C2CCCCC2)CC1 | inconclusive: 1.1 nM
34 | Cc1cc(=O)cc(C)[nH]1 | inactive
35 | COc1ccc(C(=O)N(Cc2ccc(N(C)C)cc2)C2CCS(=O)(=O)C2)cc1 (configuration not stated) | inconclusive: 3.3 nM
36 | COc1ccc(CC2NCCC3(O)CCCCC23)cc1 (configuration not stated) | inactive
37 | Cc1cc(C)c(NC(=O)OCCN2CCOCC2)c(C)c1 | active: 100 nM
38 | COc1cc(OC)c(NC2=NCCCCC2)cc1Cl | inconclusive: 2.6 nM
39 | Cc1nc(NC(=O)CSc2nnnn2Cc2ccccc2)sc1C | inactive
40 | CCCCCCSc1ncc(C#N)c(N)n1 | inconclusive: 9.4 nM
41 | O=C(OCN1C(=O)c2ccccc2C1=O)c1ccccc1 | inconclusive: 1.2 nM
42 | FC(F)(F)c1cc(CO[C@@H]2CCCN[C@H]2c2ccccc2)cc(C(F)(F)F)c1 | inactive
43 | COc1ccc(C(=O)N2CCC3(CCCN(Cc4nccs4)C3)CC2)cc1 | inactive
44 | Cc1cc2oc(=O)c3c(c2cc1OCc1nn[nH]n1)CCCC3 | active: 54 nM
45 | Cc1c(C2OC(=O)C3(CCCCC3)C(=O)C2(C)C)c(=O)n(-c2ccccc2)n1C (configuration not stated) | inconclusive: 1.1 nM
46 | COC1=C(OC)C(=O)c2ccccc2C1=O | active: 200 nM
47 | COc1ccc(OCc2cccc(C(=O)N3CCCC3)c2)cc1 | active: 18 nM
